# Measurements reported in the supplement of paper PMC8728848.
# Some of the results follow.
# Columns and labels:
# Test in all cases: glycan array binding signal (z-score within array); higher = stronger binding
# Conditions in all cases: glycan notation: IUPAC condensed, linker removed
# [1] = target: GlcNAc(b1-3)Gal(b1-4)GlcNAc(b1-3)Gal(b1-4)GlcNAc(b1-3)GalNAc
# In short: (§1)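 Arrays were curated from the Consortium for Functional Glycomics database, 3228 in total, and kept only where the protein sequence was available. Binding is expressed as a within-array Z-score. This score was averaged across arrays of the same protein sequence at different concentrations or buffers and across linkers, and negative values can be read as non-binding.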
# [2] = target: GlcNAc(b1-3)Gal(b1-4)GlcNAc(b1-3)GalNAc
# In short: as §1
# [3] = target: GlcNAc(b1-3)Gal(b1-4)GlcNAc(b1-3)[GlcNAc(b1-3)Gal(b1-4)GlcNAc(b1-3)]GalNAc
# In short: as §1
# [4] = target: GlcNAc(b1-3)Gal(b1-4)GlcNAc(b1-6)[Gal(b1-3)]GalNAc
# In short: as §1
# [5] = target: GlcNAc(b1-3)Gal(b1-4)GlcNAc(b1-6)[GlcNAc(b1-3)Gal(b1-3)]GalNAc
# In short: as §1
# [6] = target: GlcNAc(b1-3)Gal(b1-4)GlcNAc(b1-6)[GlcNAc(b1-3)]Gal(b1-4)GlcNAc
# In short: as §1
# [7] = target: GlcNAc(b1-3)GalNAc
# In short: as §1
# [8] = target: GlcNAc(b1-3)Man
# In short: as §1
# [9] = target: GlcNAc(b1-3)[GlcNAc(b1-4)][GlcNAc(b1-6)]GlcNAc
# In short: as §1
# [10] = target: GlcNAc(b1-3)[GlcNAc(b1-6)]Gal(b1-4)GlcNAc
# In short: as §1
# [11] = target: GlcNAc(b1-3)[GlcNAc(b1-6)]GalNAc
# In short: as §1
# [12] = target: GlcNAc(b1-4)Gal(b1-4)GlcNAc
# In short: as §1
# [13] = target: GlcNAc(b1-4)GlcNAc
# In short: as §1
# [14] = target: GlcNAc(b1-4)GlcNAc(b1-4)GlcNAc
# In short: as §1
# [15] = target: GlcNAc(b1-4)GlcNAc(b1-4)GlcNAc(b1-4)GlcNAc(b1-4)GlcNAc
# In short: as §1
# [16] = target: GlcNAc(b1-4)GlcNAc(b1-4)GlcNAc(b1-4)GlcNAc(b1-4)GlcNAc(b1-4)GlcNAc
# In short: as §1
# [17] = target: GlcNAc(b1-4)[GlcNAc(b1-6)]GalNAc
# In short: as §1
# [18] = target: GlcNAc(b1-6)Gal(b1-4)GlcNAc
# In short: as §1
# [19] = target: GlcNAc(b1-6)GalNAc
# In short: as §1
# [20] = target: GlcNAc6S(b1-3)Gal(b1-4)GlcNAc
# In short: as §1
# [21] = target: Kdn(a2-3)Gal(b1-3)GalNAc
# In short: as §1
# [22] = target: Kdn(a2-3)Gal(b1-3)GlcNAc
# In short: as §1
# [23] = target: Kdn(a2-3)Gal(b1-4)Glc
# In short: as §1
# [24] = target: Kdn(a2-3)Gal(b1-4)GlcNAc
# In short: as §1
# [25] = target: Kdn(a2-3)Gal(b1-4)[Fuc(a1-3)]GlcNAc
# In short: as §1
# [26] = target: Kdn(a2-6)Gal(b1-4)GlcNAc
# In short: as §1
# [27] = target: Man(a1-2)Man(a1-2)Man(a1-3)Man
# In short: as §1
# [28] = target: Man(a1-2)Man(a1-2)Man(a1-6)[Man(a1-3)]Man
# In short: as §1
# [29] = target: Man(a1-2)Man(a1-3)Man
# In short: as §1
# [30] = target: Man(a1-2)Man(a1-3)[Man(a1-2)Man(a1-6)]Man
# In short: as §1
binder,measurement,setting,value
"CD4 (Rattus norvegicus), P05540 (protein) MCRGFSFRHLLPLLLLQLSKLLVVTQGSTSITAYKSEGESAEFSFPLNLGEESLQGELRWKAEKAPSSQSWITFSLKNQKVSVQKSTSNPKFQLSETLPLTLQIPQVSLQFAGSGNLTLTLDRGILYQEVNLVVMKVTQPDSNTLTCEVMGPTSPKMRLILKQENQEARVSRQEKVIQVQAPEAGVWQCLLSEGEEVKMDSKIQVLSKGLNSGGGSGGGTGGGDLAPQMLRELQETNAALQDVRELLRQQVKEITFLKNTVMECDACGLDRNLPPLAPLGPHPETLVKVKDAEDQLGARVGYIELDLNSGKILESFRPEERFPMMSTFKVLLCGAVLSRIDAGQEQLGRRIHYSQNDLVEYSPVTEKHLTDGMTVRELCSAAITMSDNTAANLLLTTIGGPKELTAFLHNMGDHVTRLDRWEPELNEAIPNDERDTTMPVAMATTLRKLLTGELLTLASRQQLIDWMEADKVAGPLLRSALPAGWFIADKSGAGERGSRGIIAALGPDGKPSRIVVIYTTGSQATMDERNRQIAEIGASLIKHW",glycan array binding signal (z-score),[1],-0.708
same,glycan array binding signal (z-score),[2],-1.2
same,glycan array binding signal (z-score),[3],-0.632
same,glycan array binding signal (z-score),[4],-0.267
same,glycan array binding signal (z-score),[5],-1.14
same,glycan array binding signal (z-score),[6],-0.078
same,glycan array binding signal (z-score),[7],0.014
same,glycan array binding signal (z-score),[8],0.154
same,glycan array binding signal (z-score),[9],-0.073
same,glycan array binding signal (z-score),[10],1.01
same,glycan array binding signal (z-score),[11],-0.65
same,glycan array binding signal (z-score),[12],0.561
same,glycan array binding signal (z-score),[13],-0.153
same,glycan array binding signal (z-score),[14],0.214
same,glycan array binding signal (z-score),[15],-0.607
same,glycan array binding signal (z-score),[16],0.535
same,glycan array binding signal (z-score),[17],0.046
same,glycan array binding signal (z-score),[18],0.739
same,glycan array binding signal (z-score),[19],-0.286
same,glycan array binding signal (z-score),[20],1.64
same,glycan array binding signal (z-score),[21],0.559
same,glycan array binding signal (z-score),[22],-0.463
same,glycan array binding signal (z-score),[23],0.091
same,glycan array binding signal (z-score),[24],-0.59
same,glycan array binding signal (z-score),[25],1.05
same,glycan array binding signal (z-score),[26],-1.16
same,glycan array binding signal (z-score),[27],-0.58
same,glycan array binding signal (z-score),[28],-0.617
same,glycan array binding signal (z-score),[29],-1.14
same,glycan array binding signal (z-score),[30],-0.568

# 2 entries picked at random from the list so far:
binder,measurement,setting,value
"CD4 (Rattus norvegicus), P05540 (protein) MCRGFSFRHLLPLLLLQLSKLLVVTQGSTSITAYKSEGESAEFSFPLNLGEESLQGELRWKAEKAPSSQSWITFSLKNQKVSVQKSTSNPKFQLSETLPLTLQIPQVSLQFAGSGNLTLTLDRGILYQEVNLVVMKVTQPDSNTLTCEVMGPTSPKMRLILKQENQEARVSRQEKVIQVQAPEAGVWQCLLSEGEEVKMDSKIQVLSKGLNSGGGSGGGTGGGDLAPQMLRELQETNAALQDVRELLRQQVKEITFLKNTVMECDACGLDRNLPPLAPLGPHPETLVKVKDAEDQLGARVGYIELDLNSGKILESFRPEERFPMMSTFKVLLCGAVLSRIDAGQEQLGRRIHYSQNDLVEYSPVTEKHLTDGMTVRELCSAAITMSDNTAANLLLTTIGGPKELTAFLHNMGDHVTRLDRWEPELNEAIPNDERDTTMPVAMATTLRKLLTGELLTLASRQQLIDWMEADKVAGPLLRSALPAGWFIADKSGAGERGSRGIIAALGPDGKPSRIVVIYTTGSQATMDERNRQIAEIGASLIKHW",glycan array binding signal (z-score),[9],-0.073
same,glycan array binding signal (z-score),[6],-0.078
